Paper PMC9199371
No constants are given. Whether binding was seen depends on the method and setting. Binding seen in cells or lysates may run through a third protein. Some results given as binding are weak or reduced against the parent protein; the word gives no strength. One block for each molecule: values may come before it.

Chains of the proteins cited; added tags and fusions are not shown.
UniProt Q8R4B8: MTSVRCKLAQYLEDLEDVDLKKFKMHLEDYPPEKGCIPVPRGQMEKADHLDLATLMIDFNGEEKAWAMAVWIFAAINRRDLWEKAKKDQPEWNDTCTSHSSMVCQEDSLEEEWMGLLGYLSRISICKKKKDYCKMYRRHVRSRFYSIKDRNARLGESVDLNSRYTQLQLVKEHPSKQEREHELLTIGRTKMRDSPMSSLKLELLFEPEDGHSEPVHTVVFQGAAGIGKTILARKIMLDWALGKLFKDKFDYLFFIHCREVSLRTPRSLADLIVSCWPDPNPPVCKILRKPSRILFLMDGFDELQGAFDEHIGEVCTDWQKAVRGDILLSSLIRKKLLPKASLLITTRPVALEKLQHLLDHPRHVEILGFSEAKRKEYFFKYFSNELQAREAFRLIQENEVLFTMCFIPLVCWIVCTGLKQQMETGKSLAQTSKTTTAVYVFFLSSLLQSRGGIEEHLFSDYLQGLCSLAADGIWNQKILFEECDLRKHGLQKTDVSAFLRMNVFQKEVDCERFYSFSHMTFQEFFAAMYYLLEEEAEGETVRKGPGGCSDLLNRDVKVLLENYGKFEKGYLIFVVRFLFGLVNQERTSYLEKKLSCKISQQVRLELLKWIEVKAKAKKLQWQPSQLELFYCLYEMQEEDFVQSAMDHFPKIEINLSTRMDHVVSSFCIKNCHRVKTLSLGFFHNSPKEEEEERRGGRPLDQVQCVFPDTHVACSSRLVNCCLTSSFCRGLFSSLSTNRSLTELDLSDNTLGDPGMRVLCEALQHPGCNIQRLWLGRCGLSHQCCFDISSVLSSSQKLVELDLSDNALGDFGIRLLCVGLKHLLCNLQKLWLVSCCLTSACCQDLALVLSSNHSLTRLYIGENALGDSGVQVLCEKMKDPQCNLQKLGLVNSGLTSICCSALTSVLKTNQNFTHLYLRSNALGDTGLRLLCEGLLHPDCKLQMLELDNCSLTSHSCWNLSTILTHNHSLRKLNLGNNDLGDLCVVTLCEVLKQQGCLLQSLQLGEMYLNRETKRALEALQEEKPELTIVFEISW

Columns and labels:
[1] = target: T1, SGT1 (a suppressor of the G2 allele of SKP1) (mouse (endogenous in primary peritoneal macrophages and RAW264.7)) (UniProt Q9CX34); experiment: co-IP; endogenous proteins; anti-NLRP3, anti-SGT1 or rabbit IgG on Protein A/G Mix Magnetic Beads, 150 µg of protein sample, overnight at 4°C, washed with PBST; LPS+ATP-induced RAW264.7 cells (with or without HSF1 overexpression) and primary peritoneal macrophages (HSF1+/+ and HSF1-/-)
T1 sequence: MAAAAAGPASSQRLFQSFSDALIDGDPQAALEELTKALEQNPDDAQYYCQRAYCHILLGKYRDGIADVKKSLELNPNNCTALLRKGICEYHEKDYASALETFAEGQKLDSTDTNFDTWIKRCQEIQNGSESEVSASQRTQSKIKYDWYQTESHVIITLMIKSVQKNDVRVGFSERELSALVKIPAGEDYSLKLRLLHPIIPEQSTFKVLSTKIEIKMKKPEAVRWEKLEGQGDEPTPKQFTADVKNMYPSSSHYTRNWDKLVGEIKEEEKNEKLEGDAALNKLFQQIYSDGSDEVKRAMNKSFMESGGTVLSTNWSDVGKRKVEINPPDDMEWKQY

[2] = target: NOD-like receptor (NLR)-family pyrin domain-containing 3 (NLRP3) (mouse (endogenous in primary peritoneal macrophages and RAW264.7)) (UniProt Q8R4B8); experiment: as above

binding [1]: binds
Molecule: NOD-like receptor (NLR)-family pyrin domain-containing 3 (NLRP3) (from UniProt Q8R4B8 1-1033)

binding [2]: binds
B1: SGT1 (a suppressor of the G2 allele of SKP1) (protein, UniProt Q9CX34 1-336)
chain: T1 sequence
